# At least one structure is not confirmed: it was looked up by name or label, or the drawing left a doubt.
# How the values were obtained:
# PAR-4 [1] = assay: In-vitro PAR-4 induction in mouse embryonic fibroblast cells (Western blot); format: cell-based; settings: 18-21 h incubation, test concentration not given
# Description: (§1) Mouse embryonic fibroblast cells were harvested from exponential phase cultures. After a 24 h recovery period to allow the cells to resume exponential growth the cells were treated with M of Pyronaridine followed by further 18-21 h of incubation. […] The samples were also subjected to SDS/PAGE and Coomassie blue staining to determine albumin levels in serum from the Conditioned Medium (CM) as another loading control.
# as §1, with “[…]” for “Pyronaridine”, “CM” for “Conditioned Medium (CM)”
# as §1, with “fibroblast” for “fibroblast cells”, “with 25 µM” for “with M”, “of Meloquine” for “of Pyronaridine”, “the cell supernatant” for “the Conditioned Medium (CM)”
# Mouse embryonic fibroblast cells were harvested from exponential phase cultures. […]
# PAR-4 [2] = assay: PAR-4 inducing activity, general statement of the inventors; format: cell-based, human and mouse; settings: summary statement, no test details
Compound,PAR-4 secretion in the cell supernatant (PAR-4 [1]),PAR-4 inducing activity (PAR-4 [2])
Nc1cc(N2CCCCC2)nc(N)[n+]1[O-] [Minoxidil],able to induce robust PAR-4 secretion,found to possess PAR-4 inducing activity
CC1COc2c(N3CCN(C)CC3)c(F)cc3c(=O)c(C(=O)O)cn1c23 (stereo not shown) [Ofloxacin],able to induce robust PAR-4 secretion,found to possess PAR-4 inducing activity

# — patent publication US20200215074A1, “Method of Treatment of Cancer” (CIPLA LIMITED, priority 2017, published 2020)
